# Data reported in PubChem BioAssay AID2685 (National Center for Advancing Translational Sciences (NCATS), 2010).
# This is one part of the list. The main result of the screen is listed elsewhere. These columns were measured beside it and carry no call. Most of these compounds were active or inconclusive in the main read-out, so they are no random draw. Words in brackets tell the shape of the fitted curve; partial curves, single points and poor fits give uncertain potencies.
# Assay: qHTS Assay for Lipid Storage Modulators in Drosophila S3 Cells;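 as to cell number change: cells counted by Cell Tracker Red CMTPX staining in the red channel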
# Settings: BODIPY lipid droplet fluorescence, 18-24 h; for cell number change: measured here: cell count max response, cells fed with added oleic acid
# How it was run: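 Drosophila S3 cells loaded with oleic acid (400 uM, as added) and compounds at several concentrations; lipid droplets imaged by 488-nm laser-scanning cytometry, 500–530 nm intensity and object ratio to cell channel. Percent activity normalized to 20 uM Triacsin C.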
# [1] = measured here: lipid fluorescence (Fed channel) AC50, cells fed with added oleic acid
# [2] = measured here: cell number channel AC50, cells fed with added oleic acid
compound,measurement,setting,value
CCOC(=O)C(C)Sc1nc(-c2cccs2)ccc1C#N (stereo not given),cell number change,,12.9%
Cc1ccc(OCCC(=O)N(Cc2ccccc2)c2c(N)n(Cc3ccccc3)c(=O)[nH]c2=O)cc1,cell number change,,-13.7%
CC(c1ccccc1)N1CCn2c(nc3cc(NS(C)(=O)=O)ccc32)C1 (stereo not given),cell number change,,29.5%
same,AC50,[1],"7.08 µM [rising, partial curve, poor fit]"
O=C(C(=S)N1CCOCC1)c1c[nH]c2ccccc12,cell number change,,118%
COC(=O)c1ccc(CNC(=O)C2CCC(=O)N(Cc3ccccn3)C2)cc1 (stereo not given),cell number change,,33.6%
same,AC50,[2],"23.1 µM [rising, partial curve, poor fit]"
same,AC50,[1],"0.00517 µM [rising, full curve]"
CCNc1nc(NCC)nc(N/N=C/c2ccc(N(C)C)cc2)n1,AC50,[1],"20.6 µM [rising, partial curve]"
COc1cc(NC(=O)c2ccc3c(c2)OCCO3)ccc1NC(=O)c1cccs1,cell number change,,-30.2%
same,AC50,[2],"29.1 µM [falling, single point]"
same,AC50,[1],"20.6 µM [falling, single point]"
Cc1ccc(S(=O)(=O)CCSc2nc(C)cc(C)c2C#N)cc1,cell number change,,-35%
same,AC50,[2],"14.6 µM [falling, partial curve, poor fit]"
O=C(NCCN1CCOCC1)c1ccc(/C=C2\Sc3ccccc3N(Cc3ccc(F)cc3)C2=O)cc1,cell number change,,2.29%
same,AC50,[2],"2.59 µM [falling, partial curve]"
COc1cc(N=Nc2ccccc2C(=O)O)ccc1O,cell number change,,38.3%
same,AC50,[2],"18.4 µM [rising, partial curve, poor fit]"
same,AC50,[1],"29.1 µM [rising, single point]"
c1ccc(CSCc2cn3ccccc3n2)cc1,cell number change,,13.1%
same,AC50,[2],"0.103 µM [falling, full curve, poor fit]"
same,AC50,[1],"0.13 µM [falling, full curve, poor fit]"
O=C1/C(=C/c2ccc(O)c(O)c2)SC(=S)N1Nc1ccccc1,cell number change,,-93.6%
same,AC50,[2],"20.6 µM [falling, partial curve]"
same,AC50,[1],"29.1 µM [falling, single point]"
CCc1ccc(C(=O)NNC(=O)CCN2CCN(Cc3ccccc3)CC2)cc1,AC50,[1],"4.61 µM [falling, partial curve, poor fit]"
CCCCOc1ccc(C(=O)N/C(=C\c2cccc([N+](=O)[O-])c2)C(=O)OCCC)cc1,cell number change,,-9.43%
COc1ccc(OC)c(S(=O)(=O)N2CCN(CC(O)COc3ccccc3)CC2)c1 (stereo not given),cell number change,,-5.13%
same,AC50,[1],"6.51 µM [falling, single point]"
Cc1ccc(S(=O)(=O)NNC(=O)Nc2ccc(Cl)c(Cl)c2)cc1,cell number change,,-63.1%
same,AC50,[2],"20.6 µM [falling, single point]"
same,AC50,[1],"20.6 µM [falling, single point]"
CCOC(=O)CN1C(=O)S/C(=C/C=C/c2ccc(N(C)C)cc2)C1=O,cell number change,,-85.9%
same,AC50,[2],"23.1 µM [falling, single point]"
same,AC50,[1],"20.6 µM [falling, partial curve]"
CC1(NC(=O)COc2ccccc2-c2ccccc2)CCS(=O)(=O)C1 (stereo not given),cell number change,,133%
same,AC50,[2],"29.1 µM [rising, single point]"
COc1cc(OC)cc(C(=O)N2CCC(C(=O)N3CCOCC3)CC2)c1,cell number change,,-1.32%
CC1=C([N+](=O)[O-])C(c2ccccc2Cl)NC(=O)N1C (stereo not given),cell number change,,-1.82%
same,AC50,[2],"0.164 µM [rising, partial curve, poor fit]"
same,AC50,[1],"29.1 µM [rising, single point]"
CCCNC(=O)C(Cc1ccccc1)NC(=O)c1ccccc1 (stereo not given),cell number change,,8.54%
Cc1ccc(C(=O)OCC(=O)N(C)c2ccccc2)c(C)c1,cell number change,,-34.3%
same,AC50,[2],"3.66 µM [falling, partial curve, poor fit]"
O=C(CCOc1ccccc1)Nc1ccnn1C1CCN(Cc2ccccc2)CC1,cell number change,,-14.4%
same,AC50,[1],"29.1 µM [falling, single point]"
Cc1nc2ccc(NC(=O)COc3ccccc3)cc2s1,cell number change,,-3.79%
COC(=O)c1cn(NC(=O)c2ccc(OC)c(OC)c2)c(=O)c2ccccc12,AC50,[2],"0.58 µM [rising, single point]"
COc1ccccc1NC(=O)c1sc2ncn(Cc3ccccc3C)c(=O)c2c1C,cell number change,,14.1%
same,AC50,[1],"25.9 µM [rising, single point]"
O=C(COc1ccc(S(=O)(=O)NC2CCCC2)cc1)N1CCCCCC1,cell number change,,113%
same,AC50,[2],"25.9 µM [rising, single point]"
same,AC50,[1],"29.1 µM [rising, single point]"
CCCN1Cc2cccc(C(=O)N3CCN(c4ccccc4)CC3)c2C1=O,cell number change,,-20%
same,AC50,[2],"1.16 µM [falling, partial curve, poor fit]"
same,AC50,[1],"1.46 µM [falling, partial curve]"
COc1ccc(N/C=C2/Sc3ccccc3NC2=O)cc1,AC50,[1],"0.731 µM [rising, single point]"
O=S(=O)(c1ccc2c(c1)C(O)c1ccccc1CC2)C(F)(F)F (stereo not given),cell number change,,-29.1%
same,AC50,[2],"3.26 µM [falling, full curve, poor fit]"
same,AC50,[1],"18.4 µM [falling, partial curve]"
COc1cnc(-c2ccccn2)nc1Sc1ccc(C)cc1,cell number change,,-2.17%
CCOC(=O)c1c(C)[nH]c(C(=O)COC(=O)CNC(=O)c2ccc(Cl)cc2Cl)c1C,cell number change,,-39%
same,AC50,[1],"4.61 µM [falling, full curve, poor fit]"
CSc1nc2sc3c(c2c(=O)n1C1CCCCC1)CCN(C)C3,cell number change,,-87%
same,AC50,[2],"13 µM [falling, partial curve]"
same,AC50,[1],"14.6 µM [falling, partial curve]"
Cc1cc(C)n(-c2nc3ccccc3nc2N2CCN(C(=O)c3ccccc3)CC2)n1,cell number change,,2.02%
same,AC50,[1],"0.326 µM [rising, full curve, poor fit]"
O=C(Nc1cc(C(F)(F)F)ccc1N1CCOCC1)c1ccc2ccccc2n1,cell number change,,-5.92%
same,AC50,[1],"0.184 µM [rising, full curve, poor fit]"
NC(=O)c1c(N)sc(=S)n1CC1CCCO1 (stereo not given),cell number change,,5.64%
same,AC50,[1],"0.146 µM [rising, full curve]"
Cc1cc(C(=O)N/N=C2/CC(C)CC(C)(C)C2)c(C)o1 (stereo not given),cell number change,,-12.1%
same,AC50,[2],"0.731 µM [falling, full curve, poor fit]"
same,AC50,[1],"0.731 µM [falling, full curve]"

# Random excerpt: four records from the list, in no set order.
compound,measurement,setting,value
CC1(NC(=O)COc2ccccc2-c2ccccc2)CCS(=O)(=O)C1 (stereo not given),AC50,[2],"29.1 µM [rising, single point]"
O=C(Nc1cc(C(F)(F)F)ccc1N1CCOCC1)c1ccc2ccccc2n1,AC50,[1],"0.184 µM [rising, full curve, poor fit]"
COc1ccc(N/C=C2/Sc3ccccc3NC2=O)cc1,AC50,[1],"0.731 µM [rising, single point]"
COC(=O)c1ccc(CNC(=O)C2CCC(=O)N(Cc3ccccn3)C2)cc1 (stereo not given),AC50,[2],"23.1 µM [rising, partial curve, poor fit]"
